In publication PMC12016516:
These are yes or no findings as the source states them, for the method shown. In cells and extracts the contact can be indirect. A yes stands for co-enrichment or nearness to the bait. Other partners may have been found.

Sequences of proteins named here, by UniProt entry; tags and fusion partners are left off. A change or cut given only in a name is not applied to a line headed by its entry.
UniProt Q5JIJ6: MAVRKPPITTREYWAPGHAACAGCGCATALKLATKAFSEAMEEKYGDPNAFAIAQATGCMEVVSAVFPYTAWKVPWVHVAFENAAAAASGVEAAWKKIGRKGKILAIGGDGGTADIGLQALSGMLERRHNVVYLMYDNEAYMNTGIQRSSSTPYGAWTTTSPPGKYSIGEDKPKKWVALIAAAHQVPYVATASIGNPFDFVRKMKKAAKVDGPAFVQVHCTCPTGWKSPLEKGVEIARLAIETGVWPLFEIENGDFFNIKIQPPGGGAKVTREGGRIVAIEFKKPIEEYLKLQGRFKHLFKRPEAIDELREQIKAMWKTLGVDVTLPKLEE
UniProt Q5JIK0: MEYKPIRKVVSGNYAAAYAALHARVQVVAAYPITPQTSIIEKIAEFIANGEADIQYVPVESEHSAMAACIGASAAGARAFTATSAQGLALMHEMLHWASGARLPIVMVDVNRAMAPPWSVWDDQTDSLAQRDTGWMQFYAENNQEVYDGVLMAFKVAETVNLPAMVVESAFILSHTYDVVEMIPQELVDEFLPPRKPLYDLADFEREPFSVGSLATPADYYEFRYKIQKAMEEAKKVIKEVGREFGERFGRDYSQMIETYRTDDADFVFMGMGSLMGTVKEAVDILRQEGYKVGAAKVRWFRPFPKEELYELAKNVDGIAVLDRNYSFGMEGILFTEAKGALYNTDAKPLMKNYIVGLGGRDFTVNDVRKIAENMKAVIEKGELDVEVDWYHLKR

Legend:
Test in all cases: affinity purification with mass spectrometry; HA- and His6-tagged bait made from its native locus, captured from clarified T. kodakarensis lysate on a Ni2+-charged chelating column (buffer A: 10 mM Tris HCl pH 8.0, 500 mM NaCl, 10% glycerol), eluted with an imidazole gradient; pooled fractions identified by MuDPIT LC-MS/MS and compared with the parental strain TS559 (P < 0.05, log2 fold change ≥ 2); cells grown at 85°C with (+S˚) or without (–S˚) elemental sulfur
[1] = molecular target: T1, 2-Oxoisovalerate-ferredoxin oxidoreductase, γ subunit (Thermococcus kodakarensis) (UniProt Q5JIK2)
T1 sequence: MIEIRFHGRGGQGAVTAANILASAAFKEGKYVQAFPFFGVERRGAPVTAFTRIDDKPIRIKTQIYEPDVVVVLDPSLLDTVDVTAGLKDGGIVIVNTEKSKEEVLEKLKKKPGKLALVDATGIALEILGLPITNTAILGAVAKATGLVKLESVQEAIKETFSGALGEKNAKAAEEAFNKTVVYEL

[2] = molecular target: T2, Formate dehydrogenase, [4Fe-4S] cluster-binding protein, FDHγ3 (Thermococcus kodakarensis) (UniProt Q5JHV9)
T2 sequence: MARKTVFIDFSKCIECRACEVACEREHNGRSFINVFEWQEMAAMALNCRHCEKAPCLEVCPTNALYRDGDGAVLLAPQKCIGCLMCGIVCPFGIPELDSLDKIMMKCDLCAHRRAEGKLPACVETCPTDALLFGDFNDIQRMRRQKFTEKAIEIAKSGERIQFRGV

[3] = molecular target: T3, Geranylgeranyl reductase (Thermococcus kodakarensis) (UniProt Q5JE27)
T3 sequence: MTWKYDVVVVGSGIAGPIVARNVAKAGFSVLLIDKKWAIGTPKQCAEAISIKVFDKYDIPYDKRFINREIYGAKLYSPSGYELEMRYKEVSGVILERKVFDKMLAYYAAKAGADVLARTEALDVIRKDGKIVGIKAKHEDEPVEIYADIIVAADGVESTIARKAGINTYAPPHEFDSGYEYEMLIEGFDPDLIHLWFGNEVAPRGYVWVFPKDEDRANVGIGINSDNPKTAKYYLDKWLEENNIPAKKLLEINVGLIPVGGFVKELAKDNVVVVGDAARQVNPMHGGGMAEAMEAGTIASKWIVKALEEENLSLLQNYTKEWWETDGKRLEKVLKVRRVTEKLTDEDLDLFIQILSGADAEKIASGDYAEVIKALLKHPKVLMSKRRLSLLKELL

[4] = molecular target: T4, Pyruvate:ferredoxin oxidoreductase, α subunit (Thermococcus kodakarensis) (UniProt Q5JIJ7)
T4 sequence: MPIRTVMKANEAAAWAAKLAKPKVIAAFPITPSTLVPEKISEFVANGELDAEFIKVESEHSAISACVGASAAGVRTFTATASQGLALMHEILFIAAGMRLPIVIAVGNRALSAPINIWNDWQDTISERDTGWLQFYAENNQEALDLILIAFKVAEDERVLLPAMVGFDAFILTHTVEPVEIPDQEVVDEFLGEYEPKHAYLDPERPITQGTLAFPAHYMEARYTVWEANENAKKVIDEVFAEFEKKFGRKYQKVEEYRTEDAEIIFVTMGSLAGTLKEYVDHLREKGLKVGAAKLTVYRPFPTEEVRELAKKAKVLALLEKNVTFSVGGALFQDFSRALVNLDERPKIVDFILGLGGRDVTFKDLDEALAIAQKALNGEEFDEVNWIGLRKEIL

[5] = molecular target: Pyruvate:ferredoxin oxidoreductase, β subunit (Thermococcus kodakarensis) (UniProt Q5JIJ6)
[6] = molecular target: T5, Pyruvate:ferredoxin oxidoreductase, δ subunit (Thermococcus kodakarensis) (UniProt Q5JIJ8)
T5 sequence: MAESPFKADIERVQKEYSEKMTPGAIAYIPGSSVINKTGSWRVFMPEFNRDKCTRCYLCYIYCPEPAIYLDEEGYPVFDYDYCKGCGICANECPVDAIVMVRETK

[7] = molecular target: T6, [4Fe-4S] cluster-binding protein associated with FDH, FDHγ4 (Thermococcus kodakarensis) (UniProt Q5JHV8)
T6 sequence: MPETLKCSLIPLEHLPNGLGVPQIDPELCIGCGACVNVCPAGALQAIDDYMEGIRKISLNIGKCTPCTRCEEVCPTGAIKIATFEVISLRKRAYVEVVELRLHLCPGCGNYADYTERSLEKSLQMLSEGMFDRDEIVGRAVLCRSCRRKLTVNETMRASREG

[8] = molecular target: 2-Oxoisovalerate-ferredoxin oxidoreductase, α subunit (Thermococcus kodakarensis) (UniProt Q5JIK0)
[9] = molecular target: T7, 2-Oxoisovalerate-ferredoxin oxidoreductase, β subunit (Thermococcus kodakarensis) (UniProt Q5JIJ9)
T7 sequence: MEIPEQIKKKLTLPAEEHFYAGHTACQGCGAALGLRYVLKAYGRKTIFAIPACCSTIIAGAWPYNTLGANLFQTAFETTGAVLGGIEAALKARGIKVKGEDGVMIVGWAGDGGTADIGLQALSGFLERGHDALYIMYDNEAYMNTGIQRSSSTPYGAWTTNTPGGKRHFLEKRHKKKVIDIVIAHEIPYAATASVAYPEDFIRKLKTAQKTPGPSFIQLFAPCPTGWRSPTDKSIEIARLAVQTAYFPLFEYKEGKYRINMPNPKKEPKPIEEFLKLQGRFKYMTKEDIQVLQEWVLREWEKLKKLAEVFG

[10] = molecular target: T8, 2-Oxoisovalerate-ferredoxin oxidoreductase, δ subunit (Thermococcus kodakarensis) (UniProt Q5JIK1)
T8 sequence: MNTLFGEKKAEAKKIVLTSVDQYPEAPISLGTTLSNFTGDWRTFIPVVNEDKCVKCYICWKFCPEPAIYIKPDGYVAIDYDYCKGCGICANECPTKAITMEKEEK

Measured: binding

B1: Rubrerythrin Mn-catalase (protein, UniProt Q5JHY4 1-174)
chain: MEVTEKEIFEIAVNSEIRAKEAYEKLASMTKSDIIRDELLFLAKEEDKHREIIEKMAERFAAEGGESKKIEMEVMGEFKVIAEKMAEAIKKPDINLDEIYEIAMQAELVSEKLYKELAKYASNEKTKLLLEMLADMERNHYNILKKQYDYIMRYPELYKEELYDQLMKDINFNF
not listed: [8] | [9] | [10]
binds: all other assays above

B2: Rubrerythrin-related protein (protein, UniProt Q5JF77 1-174)
chain: MVPPELEEGLPLEKMKDFSLEELLGMAIKAEIGARKFYESLAERIDIQELKEKIEWLAGEEKKHEELLRKIYANMFPGKEVVFPKEHIGPELQPVARKLNGVQDIIDLIRWAMKAEEIAAQFYAKLEEMVDTEEKKRLMRYLSDMEWGHYYNLKAEYELLLDWEMYGQMMHVGP
binds: [8] | [9] | [1] | [10]
